The list shows a part of the results. Shown are side measurements of this screen, not its main read-out; they come without a call. Compounds called inactive in the main read-out are mostly missing here. Words in brackets tell the shape of the fitted curve; partial curves, single points and poor fits give uncertain potencies.
Experiment: qHTS Assay for Lipid Storage Modulators in Drosophila S3 Cells;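 on cell number change: cells counted by Cell Tracker Red CMTPX staining in the red channel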
Settings: BODIPY lipid droplet fluorescence, 18-24 h; for cell number change: measured here: cell count max response, cells fed with added oleic acid
Outline: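 Drosophila S3 cells got compounds at several concentrations plus oleic acid (400 uM solution). Laser-scanning cytometry with 488 nm excitation read lipid droplets at 500-530 nm and cells at 575-640 nm. Percent activity was relative to 20 uM Triacsin C.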

[1] = measured here: lipid fluorescence (Fed channel) AC50, cells fed with added oleic acid
[2] = measured here: cell number channel AC50, cells fed with added oleic acid

SMILES	cell number change [%]	AC50 [1]	AC50 [2]
O=C(Nc1ccnn1C1CCN(C2CCOCC2)CC1)c1cccc(F)c1	-5.9	4.11 µM [rising, full curve]	–
COc1ccc(NC(=O)CCc2ccccc2)cc1S(=O)(=O)N1CCCCC1	1.74	0.731 µM [falling, single point]	–
O=C(Cn1c(=O)n(CC(=O)N2CCCCC2)c(=O)c2sccc21)NCc1ccccc1	-8.25	2.31 µM [falling, single point]	–
COc1ccc(CN(Cc2cccnc2)S(=O)(=O)c2ccc(-n3cnnn3)c(OC)c2)cc1	7.26	0.411 µM [rising, partial curve, poor fit]	–
COC(=O)c1[nH]c2ccc(Br)cc2c1NC(=O)CN1CCN(C2CCCCC2)CC1	-25.3	29.1 µM [falling, single point]	–
O=[N+]([O-])c1cccc(/C=N/n2c(-c3cccnc3)n[nH]c2=S)c1	-30.4	–	29.1 µM [falling, single point]
Cc1cc(-c2ccccc2)nc(Oc2ccc(C(C)(C)C)cc2)c1S(C)(=O)=O	-33.9	32.6 µM [falling, single point]	32.6 µM [falling, single point]
Cc1cc(C(=O)N2CCN(S(C)(=O)=O)CC2)cs1	-40.1	0.00461 µM [falling, full curve, poor fit]	0.0092 µM [falling, full curve]
Cc1ccc(NC(=O)c2cnn(C)c2)cc1[N+](=O)[O-]	32.4	8.2 µM [rising, partial curve]	5.8 µM [rising, partial curve]
CCCC(=O)Nc1ccc(C(=O)COC(=O)c2c(C)noc2C)cc1	23.7	–	–
O=C(COc1ncnc2ccc(Br)cc12)NC1CCCC1	-31.5	29.1 µM [falling, single point]	29.1 µM [falling, single point]
COc1ccc([C@H]2CC(=O)C=C(c3ccc(C)c([N+](=O)[O-])c3)C2)cc1	11.1	0.116 µM [falling, full curve, poor fit]	–
CCOc1ccc(NC(=O)COC(=O)C23CC4CC(CC(C4)C2)C3)c([N+](=O)[O-])c1	-25.3	–	–
COc1cc(CCC(=O)OCC(=O)Nc2ccc(C)cc2Cl)cc(OC)c1OC	–	1.84 µM [rising, partial curve, poor fit]	–
Cc1cccc(NS(=O)(=O)c2coc(C(N)=O)c2)c1C	9.51	18.4 µM [rising, partial curve]	–
Cc1ccc(S(=O)(=O)N2CCN(C(=O)c3ccc(OCc4c(C)noc4C)cc3)CC2)cc1	9.14	–	–
CC(=O)C1=C(C)NC(=O)NC1c1ccccc1 (stereo unspecified)	4.44	0.0058 µM [rising, full curve, poor fit]	–
Cc1ccccc1NC(=O)Cc1nnc(SCC(=O)NC2CCCC2)n1C	2.63	0.1 µM [rising, full curve, poor fit]	–
CCc1nnc(NC(=O)c2cccc(OC)c2)s1	–	0.58 µM [falling, single point]	–
O=C(Nc1ccnn1C1CCN(Cc2ccc(C#CCCO)cc2)CC1)c1cccc(F)c1	-18.2	–	–
Oc1csc(Cc2nc(-c3ccc4ccccc4c3)cs2)n1	8.92	–	–

SMILES	cell number change [%]	AC50 [1]	AC50 [2]
O=C(NCCN1CCOCC1)c1ccc(=O)n(Cc2ccc(Cl)cc2)c1	-34.8	–	18.4 µM [falling, single point]
Cc1ccc(N2CCN(S(=O)(=O)c3ccc4c(c3)oc(=O)n4C)CC2C)cc1 (stereo unspecified)	-12.5	29.1 µM [falling, single point]	–
CCOC(=O)N1CCN(C(=O)CSc2nc3c([nH]c4ccccc43)c(=O)n2CCOC)CC1	-25.2	–	0.92 µM [falling, partial curve]
COc1ccc(CCN2CC(C(=O)N(C)C3CCOCC3)CCC2=O)cc1 (stereo unspecified)	–	16.4 µM [rising, single point]	–
CNC(=O)COC(=O)c1ccccc1Oc1ccccc1	30.2	–	11.6 µM [rising, single point]
CCN(CC)c1ccc2c(c1)oc(=O)c1c(Cl)cc(=O)oc12	–	0.259 µM [rising, partial curve, poor fit]	1.46 µM [rising, partial curve]
Cc1ccc(/C=N/Nc2cc(C)nc(N3CCOCC3)n2)cc1	12.3	0.164 µM [rising, full curve, poor fit]	–
CCCCc1ccc(/C(C)=N/NC(=O)C2CCCC2)cc1	-20.3	–	–
CSc1nc(Sc2ccc(Cl)cc2)c2ccccc2n1	-18.7	5.17 µM [falling, partial curve]	–
Cc1ccc(C2(c3ccccc3)NC(=O)N(CC(=O)NC3CCS(=O)(=O)C3)C2=O)cc1C (stereo unspecified)	-20.6	–	–
C=CCOc1cccc(CNc2ccc3[nH]c(=O)[nH]c3c2)c1	78.9	29.1 µM [rising, single point]	29.1 µM [rising, single point]
Cc1ccc([N+](=O)[O-])cc1Nc1nc(N2CCOCC2)nc(N2CCOCC2)n1	-17.2	2.06 µM [rising, partial curve]	–
COc1cc(NC(=O)C/C(C)=N/NC(=O)C2CCCCC2)c(OC)cc1Cl	14.3	0.206 µM [rising, single point]	–
CC(NC(=O)c1ccccc1)C(=O)N/N=C/c1cccc([N+](=O)[O-])c1 (stereo unspecified)	37.6	6.51 µM [rising, full curve]	2.31 µM [rising, partial curve]
CCOC(=O)CNC(=O)C1COc2ccccc2O1 (stereo unspecified)	-14.9	0.461 µM [falling, full curve, poor fit]	0.411 µM [falling, partial curve, poor fit]
CC1Cc2cc(/C=C3/SC(=S)NC3=O)ccc2O1 (stereo unspecified)	12.9	0.00517 µM [falling, full curve, poor fit]	–
CC(=O)c1ccccc1NC(=O)COC(=O)/C=C/c1ccc(C)o1	47.8	–	29.1 µM [rising, single point]
COc1cccc(C(=O)Nc2nnc(-c3ccc(Cl)cc3)o2)c1	-14.1	29.1 µM [falling, single point]	–
CC(C)(C)NS(=O)(=O)c1ccc(NC(=O)CS(=O)(=O)Cc2ccccc2)cc1	-6.07	29.1 µM [falling, single point]	–
Cc1cccc(N(Cc2ccccc2)C(=O)CCl)c1	-0.24	6.51 µM [falling, single point]	–
FC(F)(F)c1nnc2ccc(N3CCCCCC3)nn12	-29.6	–	–

3 entries drawn at random from those above:
SMILES	cell number change [%]	AC50 [1]	AC50 [2]
CC(NC(=O)c1ccccc1)C(=O)N/N=C/c1cccc([N+](=O)[O-])c1 (stereo unspecified)	37.6	6.51 µM [rising, full curve]	2.31 µM [rising, partial curve]
O=C(Nc1ccnn1C1CCN(C2CCOCC2)CC1)c1cccc(F)c1	-5.9	4.11 µM [rising, full curve]	–
Cc1ccc(/C=N/Nc2cc(C)nc(N3CCOCC3)n2)cc1	12.3	0.164 µM [rising, full curve, poor fit]	–

Further records:

SMILES	cell number change [%]	AC50 [1]	AC50 [2]
COc1ccc(N2CCN(C(=O)c3ccncc3)CC2)cc1	–	–	6.51 µM [rising, single point]
CC1CCN(c2cc(N3CCN(C(=O)c4ccc(F)c(F)c4)CC3)c([N+](=O)[O-])cc2F)CC1	5.18	6.51 µM [falling, single point]	–
CCOc1nc(C)ccc1-c1noc(-c2cccnc2)n1	8.29	–	–
O=C(Nc1ccccc1)c1nccn1Cc1ccc(F)cc1	61.7	–	–
O=C(COC(=O)c1cc(=O)c2ccccc2o1)NC1CCCC1	1.22	11.6 µM [falling, single point]	–
COc1ccccc1S(=O)Cc1ccc(C(=O)O)o1 (stereo unspecified)	8.39	29.1 µM [rising, single point]	–
C=C(C)Cn1c(Sc2nc3ccccc3[nH]2)nc2c1c(=O)[nH]c(=O)n2C	48.7	3.66 µM [falling, single point]	32.6 µM [rising, single point]
CC1CCCCN1C(=O)C1CCN(S(=O)(=O)c2ccc(-n3cnnn3)cc2)CC1 (stereo unspecified)	-5.26	–	7.31 µM [rising, single point]
O=C1[C@H]2[C@@H](c3ccc(F)cc3)N3C(=O)N(c4ccc(Br)cc4)C(=O)[C@@]3(Cc3ccc(Cl)cc3)[C@H]2C(=O)N1C1CCCCC1	86.2	16.4 µM [falling, partial curve]	23.1 µM [rising, partial curve]
CC1CCCN(C(=O)CSc2nnc(-c3cccs3)o2)C1 (stereo unspecified)	43.6	29.1 µM [falling, single point]	–
CC(=O)c1ccc(N(C(=O)CNC(=O)c2ccco2)C(C(=O)NC2CCCC2)c2ccncc2)cc1 (stereo unspecified)	-21.9	29.1 µM [rising, single point]	–
O=c1[nH]cc(NCCc2ccccc2)c(=O)[nH]1	-67.4	–	29.1 µM [falling, single point]
COc1ccc(Cl)cc1/C=C/c1ccc2cccc(O)c2n1	-12.4	–	–
Cc1ccc(C2(C(F)(F)F)NC(=O)N3N=C4CCCCCN4C3=C2C#N)cc1 (stereo unspecified)	-3.51	6.51 µM [falling, single point]	–
Cc1ccccc1NC(=O)CSc1nc(O)cc(=O)n1C	28.1	10.3 µM [rising, partial curve, poor fit]	–
O=C(COC(=O)c1cnc(Cl)c(Cl)c1)NC1CCCCCC1	14.8	2.31 µM [rising, single point]	–
c1ccc(C[C@H]2CN=C(Nc3ccccc3)N2CCC2CCCC2)cc1	24.2	–	0.231 µM [rising, full curve, poor fit]
COc1ccccc1Nc1nnc(SCc2cc(=O)n3ccsc3n2)s1	9.49	–	–
CSCC(=O)N1CCCC(N2CCN(c3cccc(C(F)(F)F)c3)CC2)C1 (stereo unspecified)	–	11.6 µM [falling, partial curve]	–
O=C(CNC(=O)c1ccc(Br)cc1)N=Nc1c(O)[nH]c2ccc([N+](=O)[O-])cc12	18.9	29.1 µM [rising, single point]	–
